Reference: paper PMC8629390
No constants are given. Whether binding was seen depends on the method and setting. Binding seen in cells or lysates may run through a third protein. A yes stands for co-enrichment or nearness to the bait. Other partners may have been found. For part of these data: No binding means not detected with the bait.

Protein sequences, listed by entry. Tags and fused reporters are not part of them.
UniProt Q8IV32: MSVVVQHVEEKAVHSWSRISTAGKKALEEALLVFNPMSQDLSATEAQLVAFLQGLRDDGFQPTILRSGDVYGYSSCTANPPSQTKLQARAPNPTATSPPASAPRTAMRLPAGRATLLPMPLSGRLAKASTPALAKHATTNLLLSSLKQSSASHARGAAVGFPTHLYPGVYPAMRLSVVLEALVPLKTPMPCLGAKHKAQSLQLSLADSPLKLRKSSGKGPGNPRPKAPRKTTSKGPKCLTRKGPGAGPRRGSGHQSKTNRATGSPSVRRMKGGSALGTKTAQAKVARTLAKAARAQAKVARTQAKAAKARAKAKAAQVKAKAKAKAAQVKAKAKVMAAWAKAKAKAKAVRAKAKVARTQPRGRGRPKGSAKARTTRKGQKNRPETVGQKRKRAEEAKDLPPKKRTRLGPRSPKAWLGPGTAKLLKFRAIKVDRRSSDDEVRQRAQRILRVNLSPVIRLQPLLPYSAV
UniProt P46100: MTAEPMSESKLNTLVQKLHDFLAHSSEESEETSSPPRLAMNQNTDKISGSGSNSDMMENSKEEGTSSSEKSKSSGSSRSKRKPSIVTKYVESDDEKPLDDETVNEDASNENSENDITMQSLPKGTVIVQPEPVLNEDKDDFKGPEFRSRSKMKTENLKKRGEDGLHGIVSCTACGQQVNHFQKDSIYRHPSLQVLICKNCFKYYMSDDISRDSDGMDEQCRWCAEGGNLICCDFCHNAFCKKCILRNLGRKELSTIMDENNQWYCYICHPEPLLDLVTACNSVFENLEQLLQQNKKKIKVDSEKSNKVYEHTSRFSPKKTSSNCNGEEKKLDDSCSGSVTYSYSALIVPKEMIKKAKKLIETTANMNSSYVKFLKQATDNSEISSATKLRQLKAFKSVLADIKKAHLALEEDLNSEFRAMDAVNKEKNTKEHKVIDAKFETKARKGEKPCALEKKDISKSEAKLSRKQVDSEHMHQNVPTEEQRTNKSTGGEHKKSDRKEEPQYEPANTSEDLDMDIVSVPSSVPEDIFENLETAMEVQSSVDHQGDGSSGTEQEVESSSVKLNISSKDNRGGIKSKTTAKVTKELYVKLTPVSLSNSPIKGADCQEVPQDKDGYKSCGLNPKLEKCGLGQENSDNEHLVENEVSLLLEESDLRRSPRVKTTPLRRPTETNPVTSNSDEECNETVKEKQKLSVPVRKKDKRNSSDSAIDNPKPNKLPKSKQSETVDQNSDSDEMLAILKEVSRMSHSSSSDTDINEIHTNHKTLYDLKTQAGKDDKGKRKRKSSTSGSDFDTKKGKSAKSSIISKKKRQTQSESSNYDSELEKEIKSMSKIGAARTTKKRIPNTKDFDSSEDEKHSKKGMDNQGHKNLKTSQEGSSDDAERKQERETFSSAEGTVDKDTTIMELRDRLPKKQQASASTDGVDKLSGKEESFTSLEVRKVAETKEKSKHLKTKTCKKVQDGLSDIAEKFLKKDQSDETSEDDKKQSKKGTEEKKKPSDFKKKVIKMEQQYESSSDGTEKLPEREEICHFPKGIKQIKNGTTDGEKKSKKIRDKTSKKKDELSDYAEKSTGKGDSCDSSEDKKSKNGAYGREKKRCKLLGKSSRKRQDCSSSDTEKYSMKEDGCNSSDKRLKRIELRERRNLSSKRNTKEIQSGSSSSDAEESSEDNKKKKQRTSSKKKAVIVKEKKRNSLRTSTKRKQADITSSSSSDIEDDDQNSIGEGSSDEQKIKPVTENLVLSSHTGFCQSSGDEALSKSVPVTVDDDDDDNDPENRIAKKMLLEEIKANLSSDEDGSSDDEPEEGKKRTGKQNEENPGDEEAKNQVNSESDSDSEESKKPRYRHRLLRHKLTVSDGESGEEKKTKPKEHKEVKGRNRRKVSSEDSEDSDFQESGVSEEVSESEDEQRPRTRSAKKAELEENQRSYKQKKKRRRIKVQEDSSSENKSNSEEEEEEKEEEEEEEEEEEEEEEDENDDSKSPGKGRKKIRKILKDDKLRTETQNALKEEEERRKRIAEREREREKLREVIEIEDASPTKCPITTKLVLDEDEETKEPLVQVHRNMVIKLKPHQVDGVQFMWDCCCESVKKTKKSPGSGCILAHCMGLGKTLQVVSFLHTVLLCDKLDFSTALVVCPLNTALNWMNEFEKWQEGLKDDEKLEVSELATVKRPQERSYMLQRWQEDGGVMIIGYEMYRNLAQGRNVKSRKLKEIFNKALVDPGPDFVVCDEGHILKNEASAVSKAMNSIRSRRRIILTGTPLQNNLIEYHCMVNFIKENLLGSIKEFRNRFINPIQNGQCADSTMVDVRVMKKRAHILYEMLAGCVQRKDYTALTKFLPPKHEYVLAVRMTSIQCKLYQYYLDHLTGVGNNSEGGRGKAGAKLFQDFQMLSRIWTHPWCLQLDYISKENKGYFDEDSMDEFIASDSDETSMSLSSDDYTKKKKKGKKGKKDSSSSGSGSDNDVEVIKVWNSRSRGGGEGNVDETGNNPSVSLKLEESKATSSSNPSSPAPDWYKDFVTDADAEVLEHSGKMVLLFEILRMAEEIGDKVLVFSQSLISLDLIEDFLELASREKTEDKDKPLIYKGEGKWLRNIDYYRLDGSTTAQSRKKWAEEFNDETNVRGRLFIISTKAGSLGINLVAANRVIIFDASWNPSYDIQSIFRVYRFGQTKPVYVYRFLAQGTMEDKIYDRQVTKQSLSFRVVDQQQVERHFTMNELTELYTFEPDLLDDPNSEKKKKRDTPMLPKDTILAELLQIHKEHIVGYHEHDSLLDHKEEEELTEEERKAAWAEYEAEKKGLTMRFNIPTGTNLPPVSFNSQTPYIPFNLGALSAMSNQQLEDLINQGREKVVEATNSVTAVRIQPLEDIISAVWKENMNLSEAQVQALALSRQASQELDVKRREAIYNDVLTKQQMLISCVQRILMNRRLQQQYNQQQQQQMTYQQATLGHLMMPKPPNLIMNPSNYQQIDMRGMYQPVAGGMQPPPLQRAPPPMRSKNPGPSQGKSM
UniProt P54132: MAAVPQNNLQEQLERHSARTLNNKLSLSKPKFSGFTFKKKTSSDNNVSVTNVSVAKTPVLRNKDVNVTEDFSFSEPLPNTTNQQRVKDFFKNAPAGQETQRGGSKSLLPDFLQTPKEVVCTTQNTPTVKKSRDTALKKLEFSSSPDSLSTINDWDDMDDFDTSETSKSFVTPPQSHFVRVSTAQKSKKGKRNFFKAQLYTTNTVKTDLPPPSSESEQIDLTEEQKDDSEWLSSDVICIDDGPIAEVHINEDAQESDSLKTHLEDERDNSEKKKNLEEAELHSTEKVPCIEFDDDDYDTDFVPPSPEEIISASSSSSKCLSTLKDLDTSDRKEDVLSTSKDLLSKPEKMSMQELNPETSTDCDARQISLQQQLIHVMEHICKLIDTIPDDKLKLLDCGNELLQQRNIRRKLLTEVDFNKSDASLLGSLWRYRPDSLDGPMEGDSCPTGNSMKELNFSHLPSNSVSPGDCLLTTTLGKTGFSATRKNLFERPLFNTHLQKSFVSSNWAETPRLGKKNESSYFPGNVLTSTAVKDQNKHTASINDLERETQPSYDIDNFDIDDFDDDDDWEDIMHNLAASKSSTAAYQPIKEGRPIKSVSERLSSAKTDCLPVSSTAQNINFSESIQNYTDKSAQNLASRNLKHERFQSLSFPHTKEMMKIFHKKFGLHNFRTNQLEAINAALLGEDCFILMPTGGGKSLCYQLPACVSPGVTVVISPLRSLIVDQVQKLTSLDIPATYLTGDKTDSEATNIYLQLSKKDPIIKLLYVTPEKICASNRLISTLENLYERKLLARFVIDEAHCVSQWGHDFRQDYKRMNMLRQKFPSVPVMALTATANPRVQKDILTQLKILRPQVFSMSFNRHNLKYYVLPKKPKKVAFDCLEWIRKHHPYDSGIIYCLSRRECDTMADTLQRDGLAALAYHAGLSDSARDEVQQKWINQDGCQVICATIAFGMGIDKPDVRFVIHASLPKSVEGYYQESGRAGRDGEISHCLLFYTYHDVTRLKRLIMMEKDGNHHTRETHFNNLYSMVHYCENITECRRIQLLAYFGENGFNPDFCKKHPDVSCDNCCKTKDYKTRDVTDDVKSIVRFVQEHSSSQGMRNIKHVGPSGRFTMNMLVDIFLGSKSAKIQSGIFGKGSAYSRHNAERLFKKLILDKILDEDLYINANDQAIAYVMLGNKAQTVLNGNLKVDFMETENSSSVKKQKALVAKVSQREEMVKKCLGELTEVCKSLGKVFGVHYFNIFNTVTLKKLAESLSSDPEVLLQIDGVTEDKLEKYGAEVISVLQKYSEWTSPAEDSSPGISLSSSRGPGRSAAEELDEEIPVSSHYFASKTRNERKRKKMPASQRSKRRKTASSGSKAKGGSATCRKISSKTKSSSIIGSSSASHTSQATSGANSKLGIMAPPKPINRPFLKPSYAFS
UniProt O60934: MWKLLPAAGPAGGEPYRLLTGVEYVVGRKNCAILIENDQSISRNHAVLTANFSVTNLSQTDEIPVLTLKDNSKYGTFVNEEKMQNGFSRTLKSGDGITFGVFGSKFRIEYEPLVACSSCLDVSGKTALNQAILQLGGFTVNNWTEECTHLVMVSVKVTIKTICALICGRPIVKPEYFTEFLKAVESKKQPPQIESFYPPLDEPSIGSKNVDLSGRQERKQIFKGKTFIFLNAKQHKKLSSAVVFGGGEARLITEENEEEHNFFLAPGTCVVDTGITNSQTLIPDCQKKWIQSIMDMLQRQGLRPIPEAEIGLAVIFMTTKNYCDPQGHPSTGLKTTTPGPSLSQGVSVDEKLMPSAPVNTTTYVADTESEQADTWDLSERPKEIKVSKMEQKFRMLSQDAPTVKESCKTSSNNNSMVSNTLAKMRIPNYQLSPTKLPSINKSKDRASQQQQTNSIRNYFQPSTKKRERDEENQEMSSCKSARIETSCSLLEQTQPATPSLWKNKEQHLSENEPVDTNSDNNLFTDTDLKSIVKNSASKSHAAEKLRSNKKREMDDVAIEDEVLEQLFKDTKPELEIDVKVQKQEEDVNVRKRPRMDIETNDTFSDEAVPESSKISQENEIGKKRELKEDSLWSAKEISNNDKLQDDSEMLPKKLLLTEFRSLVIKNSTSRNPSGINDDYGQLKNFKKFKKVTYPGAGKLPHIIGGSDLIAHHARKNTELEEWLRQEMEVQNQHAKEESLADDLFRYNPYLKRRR
UniProt Q08945: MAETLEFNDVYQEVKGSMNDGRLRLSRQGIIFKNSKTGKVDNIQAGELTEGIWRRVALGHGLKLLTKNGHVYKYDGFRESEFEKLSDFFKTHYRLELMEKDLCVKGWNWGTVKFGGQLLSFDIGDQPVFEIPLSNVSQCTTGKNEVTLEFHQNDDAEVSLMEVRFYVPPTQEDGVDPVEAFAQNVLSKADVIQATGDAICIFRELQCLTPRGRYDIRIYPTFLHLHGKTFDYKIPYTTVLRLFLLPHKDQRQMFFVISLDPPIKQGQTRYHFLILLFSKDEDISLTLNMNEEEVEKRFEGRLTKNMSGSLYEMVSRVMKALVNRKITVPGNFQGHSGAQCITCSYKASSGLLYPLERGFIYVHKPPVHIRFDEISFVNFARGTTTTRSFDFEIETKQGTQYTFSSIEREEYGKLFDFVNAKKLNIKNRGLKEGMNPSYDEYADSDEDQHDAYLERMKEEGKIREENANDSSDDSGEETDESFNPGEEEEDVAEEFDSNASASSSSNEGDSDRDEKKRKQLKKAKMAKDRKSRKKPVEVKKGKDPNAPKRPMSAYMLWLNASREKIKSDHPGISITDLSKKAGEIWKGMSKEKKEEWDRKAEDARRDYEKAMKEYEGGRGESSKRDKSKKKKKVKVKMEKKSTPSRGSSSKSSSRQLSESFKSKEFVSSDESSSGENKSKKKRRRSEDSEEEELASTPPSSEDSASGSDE
UniProt P83916: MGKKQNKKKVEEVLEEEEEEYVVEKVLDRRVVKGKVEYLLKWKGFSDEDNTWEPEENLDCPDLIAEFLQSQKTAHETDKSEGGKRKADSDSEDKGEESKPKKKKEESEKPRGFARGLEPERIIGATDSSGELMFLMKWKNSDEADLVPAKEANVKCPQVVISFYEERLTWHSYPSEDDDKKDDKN
UniProt Q13185: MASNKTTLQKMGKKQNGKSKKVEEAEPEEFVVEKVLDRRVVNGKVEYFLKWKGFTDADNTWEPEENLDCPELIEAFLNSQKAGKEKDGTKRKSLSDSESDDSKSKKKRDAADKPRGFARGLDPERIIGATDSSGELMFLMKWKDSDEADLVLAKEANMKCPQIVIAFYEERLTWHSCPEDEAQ

T1: FAM207A-BirA* (BioID bait) (UniProt Q9NSI2)
T1 sequence: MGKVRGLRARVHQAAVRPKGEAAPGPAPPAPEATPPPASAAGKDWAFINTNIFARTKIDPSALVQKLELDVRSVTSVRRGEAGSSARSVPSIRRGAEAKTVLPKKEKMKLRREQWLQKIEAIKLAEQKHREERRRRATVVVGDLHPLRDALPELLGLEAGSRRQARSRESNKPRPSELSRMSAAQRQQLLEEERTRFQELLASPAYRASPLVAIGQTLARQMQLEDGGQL


Each molecule was assayed against CCDC71-BirA* (BioID bait) (UniProt Q8IV32) (assay: proximity labelling; BioID with CCDC71-BirA* in HEK293 Flp-In T-REx cells; streptavidin capture and mass spectrometry; SAINT, BFDR ≤ 5% over negative controls; biological duplicates). Settings: not given.

Row | binding | Molecule
1 | binds | HDAC1 histone deacetylase (from UniProt Q13547 1-482)
2 | binds | ATRX (endogenous) (from UniProt P46100 1-2492)

The molecules below were run against T1, FAM207A-BirA* (BioID bait) (assay: proximity labelling; BioID with FAM207A-BirA* in HEK293 Flp-In T-REx cells; streptavidin capture and mass spectrometry; SAINT against BirA* and NLS-BirA* controls; biological duplicates). Settings: not given.

Row | binding | Molecule
3 | no binding | IMP3 U3 snoRNP protein (protein, UniProt Q9NV31 1-184) MVRKLKFHEQKLLKQVDFLNWEVTDHNLHELRVLRRYRLQRREDYTRYNQLSRAVRELARRLRDLPERDQFRVRASAALLDKLYALGLVPTRGSLELCDFVTASSFCRRRLPTVLLKLRMAQHLQAAVAFVEQGHVRVGPDVVTDPAFLVTRSMEDFVTWVDSSKIKRHVLEYNEERDDFDLEA

What follows are molecules tested against ATRX fused to a FLAG-tagged BirA* biotin ligase (BioID bait) (UniProt P46100) (assay: proximity labelling; BioID with ATRX fused to FLAG-BirA* at the N- or C-terminus in tetracycline-inducible HEK293 Flp-In T-REx cells; 50 uM biotin for the last 8 hr; streptavidin capture and mass spectrometry; SAINT, BFDR ≤ 5% against untransfected cells and BirA* alone, further filtered against NLS-BirA*; biological duplicates). Settings: not given.

Row | Molecule | binding
4 | BLM helicase (from UniProt P54132 1-1417) | binds
5 | CCDC71 (endogenous) (from UniProt Q8IV32 1-467) | binds
6 | ZFHX4 transcription factor (from UniProt Q86UP3 1-3567) | binds
7 | NBS1 component of the MRN complex (from UniProt O60934 1-754) | binds
8 | ZBTB4 (protein, UniProt Q9P1Z0 1-1013) MPPPAEVTDPSHAPAVLRQLNEQRLRGLFCDVTLIAGDTKFPAHRSVLAASSPFFREALLTSAPLPLPPATGGAAPNPATTTAASSSSSSSSSSSSSSSSASSSSSSSSSSPPPASPPASSPPRVLELPGVPAAAFSDVLNFIYSARLALPGGGGDGAAVAEIGALGRRLGISRLQGLGEGGDAWVPPTPAPMATSQPEEDSFGPGPRPAGEWEGDRAEAQAPDLQCSLPRRPLPCPQCGKSFIHPKRLQTHEAQCRRGASTRGSTGLGAGGAGPGGPAGVDASALPPPVGFRGGPEHVVKVVGGHVLYVCAACERSYVTLSSLKRHSNVHSWRRKYPCRYCEKVFALAEYRTKHEVWHTGERRYQCIFCWETFVTYYNLKTHQRAFHGISPGLLASEKTPNGGYKPKLNTLKLYRLLPMRAAKRPYKTYSQGAPEAPLSPTLNTPAPVAMPASPPPGPPPAPEPGPPPSVITFAHPAPSVIVHGGSSSGGGGSGTASTGGSQAASVITYTAPPRPPKKREYPPPPPEPAATPTSPATAVSPATAAGPAMATTTEEAKGRNPRAGRTLTYTAKPVGGIGGGGGPPTGAGRGPSQLQAPPPLCQITVRIGEEAIVKRRISETDLRPGELSGEEMEESEEDEEEEDEEEEEEDEEESKAGGEDQLWRPYYSYKPKRKAGAAGGASVGGSGLPRGRRPPRWRQKLERRSWEETPAAESPAGRARTERRHRCGDCAQTFTTLRKLRKHQEAHGGGSHSSRAGRRPSTRFTCPHCAKVCKTAAALSRHGQRHAAERPGGTPTPVIAYSKGSAGTRPGDVKEEAPQEMQVSSSSGEAGGGSTAAEEASETASLQDPIISGGEEPPVVASGGSYVYPPVQEFPLALIGGGREPGGGRGKSGSEGPVGAGEGDRMEGIGAAKVTFYPEPYPLVYGPQLLAAYPYNFSNLAALPVALNMVLPDEKGAGALPFLPGVFGYAVNPQAAPPAPPTPPPPTLPPPIPPKGEGERAGVERTQKGDVG | binds
9 | IMP3 U3 snoRNP protein (protein, UniProt Q9NV31 1-184) MVRKLKFHEQKLLKQVDFLNWEVTDHNLHELRVLRRYRLQRREDYTRYNQLSRAVRELARRLRDLPERDQFRVRASAALLDKLYALGLVPTRGSLELCDFVTASSFCRRRLPTVLLKLRMAQHLQAAVAFVEQGHVRVGPDVVTDPAFLVTRSMEDFVTWVDSSKIKRHVLEYNEERDDFDLEA | binds

The next lines start with the values.

Row | binding | Molecule
10 | binds | SSRP1 subunit of the FACT histone chaperone (from UniProt Q08945 1-709)
11 | binds | PML protein (from UniProt P29590 1-882)
12 | no binding | HP1β (CBX1) (from UniProt P83916 1-185)
13 | no binding | HP1γ (CBX3) (from UniProt Q13185 1-183)
14 | binds | SUPT16H subunit of the FACT histone chaperone (from UniProt Q9Y5B9 1-1047)
15 | binds | SLF2 (SMC5/6 localization factor 2), endogenous (protein, UniProt Q8IX21 1-1173) MTRRCMPARPGFPSSPAPGSSPPRCHLRPGSTAHAAAGKRTESPGDRKQSIIDFFKPASKQDRHMLDSPQKSNIKYGGSRLSITGTEQFERKLSSPKESKPKRVPPEKSPIIEAFMKGVKEHHEDHGIHESRRPCLSLASKYLAKGTNIYVPSSYHLPKEMKSLKKKHRSPERRKSLFIHENNEKNDRDRGKTNADSKKQTTVAEADIFNNSSRSLSSRSSLSRHHPEESPLGAKFQLSLASYCRERELKRLRKEQMEQRINSENSFSEASSLSLKSSIERKYKPRQEQRKQNDIIPGKNNLSNVENGHLSRKRSSSDSWEPTSAGSKQNKFPEKRKRNSVDSDLKSTRESMIPKARESFLEKRPDGPHQKEKFIKHIALKTPGDVLRLEDISKEPSDETDGSSAGLAPSNSGNSGHHSTRNSDQIQVAGTKETKMQKPHLPLSQEKSAIKKASNLQKNKTASSTTKEKETKLPLLSRVPSAGSSLVPLNAKNCALPVSKKDKERSSSKECSGHSTESTKHKEHKAKTNKADSNVSSGKISGGPLRSEYGTPTKSPPAALEVVPCIPSPAAPSDKAPSEGESSGNSNAGSSALKRKLRGDFDSDEESLGYNLDSDEEEETLKSLEEIMALNFNQTPAATGKPPALSKGLRSQSSDYTGHVHPGTYTNTLERLVKEMEDTQRLDELQKQLQEDIRQGRGIKSPIRIGEEDSTDDEDGLLEEHKEFLKKFSVTIDAIPDHHPGEEIFNFLNSGKIFNQYTLDLRDSGFIGQSAVEKLILKSGKTDQIFLTTQGFLTSAYHYVQCPVPVLKWLFRMMSVHTDCIVSVQILSTLMEITIRNDTFSDSPVWPWIPSLSDVAAVFFNMGIDFRSLFPLENLQPDFNEDYLVSETQTTSRGKESEDSSYKPIFSTLPETNILNVVKFLGLCTSIHPEGYQDREIMLLILMLFKMSLEKQLKQIPLVDFQSLLINLMKNIRDWNTKVPELCLGINELSSHPHNLLWLVQLVPNWTSRGRQLRQCLSLVIISKLLDEKHEDVPNASNLQVSVLHRYLVQMKPSDLLKKMVLKKKAEQPDGIIDDSLHLELEKQAYYLTYILLHLVGEVSCSHSFSSGQRKHFVLLCGALEKHVKCDIREDARLFYRTKVKDLVARIHGKWQEIIQNCRPTQGQLHDFWVPDS
16 | binds | FAM207A (endogenous) (protein, UniProt Q9NSI2 1-230) MGKVRGLRARVHQAAVRPKGEAAPGPAPPAPEATPPPASAAGKDWAFINTNIFARTKIDPSALVQKLELDVRSVTSVRRGEAGSSARSVPSIRRGAEAKTVLPKKEKMKLRREQWLQKIEAIKLAEQKHREERRRRATVVVGDLHPLRDALPELLGLEAGSRRQARSRESNKPRPSELSRMSAAQRQQLLEEERTRFQELLASPAYRASPLVAIGQTLARQMQLEDGGQL

These molecules were tested against ATRX fused to a FLAG-tagged BirA* biotin ligase (BioID bait), P46100 in the same assay as above. Settings: remark: other sources report otherwise.

Row | binding | Molecule
17 | no binding | RAD50 subunit of the MRN complex, Q92878 1-1312 (protein) MSRIEKMSILGVRSFGIEDKDKQIITFFSPLTILVGPNGAGKTTIIECLKYICTGDFPPGTKGNTFVHDPKVAQETDVRAQIRLQFRDVNGELIAVQRSMVCTQKSKKTEFKTLEGVITRTKHGEKVSLSSKCAEIDREMISSLGVSKAVLNNVIFCHQEDSNWPLSEGKALKQKFDEIFSATRYIKALETLRQVRQTQGQKVKEYQMELKYLKQYKEKACEIRDQITSKEAQLTSSKEIVKSYENELDPLKNRLKEIEHNLSKIMKLDNEIKALDSRKKQMEKDNSELEEKMEKVFQGTDEQLNDLYHNHQRTVREKERKLVDCHRELEKLNKESRLLNQEKSELLVEQGRLQLQADRHQEHIRARDSLIQSLATQLELDGFERGPFSERQIKNFHKLVRERQEGEAKTANQLMNDFAEKETLKQKQIDEIRDKKTGLGRIIELKSEILSKKQNELKNVKYELQQLEGSSDRILELDQELIKAERELSKAEKNSNVETLKMEVISLQNEKADLDRTLRKLDQEMEQLNHHTTTRTQMEMLTKDKADKDEQIRKIKSRHSDELTSLLGYFPNKKQLEDWLHSKSKEINQTRDRLAKLNKELASSEQNKNHINNELKRKEEQLSSYEDKLFDVCGSQDFESDLDRLKEEIEKSSKQRAMLAGATAVYSQFITQLTDENQSCCPVCQRVFQTEAELQEVISDLQSKLRLAPDKLKSTESELKKKEKRRDEMLGLVPMRQSIIDLKEKEIPELRNKLQNVNRDIQRLKNDIEEQETLLGTIMPEEESAKVCLTDVTIMERFQMELKDVERKIAQQAAKLQGIDLDRTVQQVNQEKQEKQHKLDTVSSKIELNRKLIQDQQEQIQHLKSTTNELKSEKLQISTNLQRRQQLEEQTVELSTEVQSLYREIKDAKEQVSPLETTLEKFQQEKEELINKKNTSNKIAQDKLNDIKEKVKNIHGYMKDIENYIQDGKDDYKKQKETELNKVIAQLSECEKHKEKINEDMRLMRQDIDTQKIQERWLQDNLTLRKRNEELKEVEEERKQHLKEMGQMQVLQMKSEHQKLEENIDNIKRNHNLALGRQKGYEEEIIHFKKELREPQFRDAEEKYREMMIVMRTTELVNKDLDIYYKTLDQAIMKFHSMKMEEINKIIRDLWRSTYRGQDIEYIEIRSDADENVSASDKRRNYNYRVVMLKGDTALDMRGRCSAGQKVLASLIIRLALAETFCLNCGIIALDEPTTNLDRENIESLAHALVEIIKSRSQQRNFQLLVITHDEDFVELLGRSEYVEKFYRIKKNIDQCSEIVKCSVSSLGFNVH
18 | no binding | MRE11 subunit of the MRN complex, P49959 1-708 (protein) MSTADALDDENTFKILVATDIHLGFMEKDAVRGNDTFVTLDEILRLAQENEVDFILLGGDLFHENKPSRKTLHTCLELLRKYCMGDRPVQFEILSDQSVNFGFSKFPWVNYQDGNLNISIPVFSIHGNHDDPTGADALCALDILSCAGFVNHFGRSMSVEKIDISPVLLQKGSTKIALYGLGSIPDERLYRMFVNKKVTMLRPKEDENSWFNLFVIHQNRSKHGSTNFIPEQFLDDFIDLVIWGHEHECKIAPTKNEQQLFYISQPGSSVVTSLSPGEAVKKHVGLLRIKGRKMNMHKIPLHTVRQFFMEDIVLANHPDIFNPDNPKVTQAIQSFCLEKIEEMLENAERERLGNSHQPEKPLVRLRVDYSGGFEPFSVLRFSQKFVDRVANPKDIIHFFRHREQKEKTGEEINFGKLITKPSEGTTLRVEDLVKQYFQTAEKNVQLSLLTERGMGEAVQEFVDKEEKDAIEELVKYQLEKTQRFLKERHIDALEDKIDEEVRRFRETRQKNTNEEDDEVREAMTRARALRSQSEESASAFSADDLMSIDLAEQMANDSDDSISAATNKGRGRGRGRRGGRGQNSASRGGSQRGRADTGLETSTRSRNSKTAVSASRNMSIIDAFKSTRQQPSRNVTTKNYSEVIEVDESDVEEDIFPTTSKTDQRWSSTSSSKIMSQSQVSKGVDFESSEDDDDDPFMNTSSLRRNRR
